Some results were stated once for a whole list of compounds, not compound by compound.
Molecular target: T1, human recombinant P2X7 receptors (Homo sapiens, UniProt Q99572)
T1 construct: expressed in transfected cells; host or cells: HEK293
T1 sequence (Q99572 1-595): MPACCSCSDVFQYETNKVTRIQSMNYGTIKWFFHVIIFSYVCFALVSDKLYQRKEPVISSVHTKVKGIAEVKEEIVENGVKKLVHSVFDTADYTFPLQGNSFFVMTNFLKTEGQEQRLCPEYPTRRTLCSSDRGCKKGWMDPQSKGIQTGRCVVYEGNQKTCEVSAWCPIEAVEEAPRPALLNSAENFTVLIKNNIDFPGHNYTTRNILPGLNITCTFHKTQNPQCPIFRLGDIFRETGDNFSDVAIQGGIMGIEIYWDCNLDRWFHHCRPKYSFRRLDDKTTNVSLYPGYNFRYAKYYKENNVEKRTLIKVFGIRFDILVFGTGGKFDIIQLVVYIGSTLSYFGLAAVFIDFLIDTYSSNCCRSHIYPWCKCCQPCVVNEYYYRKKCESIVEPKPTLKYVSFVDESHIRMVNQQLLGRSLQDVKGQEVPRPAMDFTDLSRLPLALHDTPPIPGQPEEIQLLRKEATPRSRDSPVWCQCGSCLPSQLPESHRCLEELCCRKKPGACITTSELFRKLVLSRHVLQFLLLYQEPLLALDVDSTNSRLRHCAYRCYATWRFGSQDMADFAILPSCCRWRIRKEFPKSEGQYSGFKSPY
Assay: Fluorescent Imaging Plate Reader (FLIPR) Ca Assay
Type: cell-based
Details: HEK293 cells expressing human recombinant P2X7; BzATP 60 μM; tested in FLIPR and/or ethidium assay

SMILES | pIC50 values in the FLIPR Ca Assay (blocking BzATP responses)
CCN1C(=O)C(Cc2ccccc2)(Cc2ccccc2)C[C@H]1C(=O)NCc1ccc(F)cc1Cl [Example E133, N-[(2-chloro-4-fluorophenyl)methyl]-1-ethyl-5-oxo-4,4-bis(phenylmethyl)prolinamide] | > 4.7
CCN1C(=O)C(Cc2ccccc2)C[C@H]1C(=O)NCc1cccc(C(F)(F)F)c1Cl (stereo partly shown) [Example E134, N-{[2-chloro-3-(trifluoromethyl)phenyl]methyl}-1-ethyl-5-oxo-4-(phenylmethyl)prolinamide] | > 4.7
CN1C(=O)CC[C@H]1C(=O)NCc1cccc(C(F)(F)F)c1C#N [Example E135, N-{[2-Cyano-3-(trifluoromethyl)phenyl]methyl}-1-methyl-5-oxoprolinamide] | > 4.7
CCN1C(=O)CC[C@H]1C(=O)NCc1ccccc1-c1ccccc1 [Example E136, N-(2-biphenylylmethyl)-1-ethyl-5-oxoprolinamide] | > 4.7

Reference: patent US7718693B2, “Receptor antagonists and their methods of use” (Glaxo Group Limited, priority 2006, dated 2010)
